We go through one molecule from PMC2904373.

The target of this assay is T1, p63 (human (endogenous in ME180)) (UniProt Q9H3D4).
T1 sequence: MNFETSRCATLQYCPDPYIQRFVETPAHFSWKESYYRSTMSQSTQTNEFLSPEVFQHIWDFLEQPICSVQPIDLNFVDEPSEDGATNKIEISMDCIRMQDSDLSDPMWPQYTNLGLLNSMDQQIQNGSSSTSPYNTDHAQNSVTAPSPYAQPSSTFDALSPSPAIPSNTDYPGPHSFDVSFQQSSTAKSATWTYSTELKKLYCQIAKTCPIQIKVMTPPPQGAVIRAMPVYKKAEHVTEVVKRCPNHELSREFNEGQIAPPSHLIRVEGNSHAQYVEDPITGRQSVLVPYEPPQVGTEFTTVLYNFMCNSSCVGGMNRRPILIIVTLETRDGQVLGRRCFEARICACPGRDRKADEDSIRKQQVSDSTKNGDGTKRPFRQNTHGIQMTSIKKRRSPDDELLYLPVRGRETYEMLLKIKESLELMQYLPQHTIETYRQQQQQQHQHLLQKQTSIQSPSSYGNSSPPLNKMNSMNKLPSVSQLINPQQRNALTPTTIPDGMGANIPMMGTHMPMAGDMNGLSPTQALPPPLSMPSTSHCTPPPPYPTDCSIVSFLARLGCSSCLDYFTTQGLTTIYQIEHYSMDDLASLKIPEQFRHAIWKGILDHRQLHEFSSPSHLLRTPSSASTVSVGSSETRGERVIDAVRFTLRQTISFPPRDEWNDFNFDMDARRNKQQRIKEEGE
As to the kind of experiment: co-IP; eluates of the first and second immunoprecipitations of sequential ChIP from ME180 chromatin (4A4 anti-p63 then 11C12 anti-p73, and the reverse); eluates probed by Western blot with anti-p73 or anti-p63. In general terms: Immunoblotting shows a protein as a band on a membrane.

These are yes or no findings as the source states them, for the method shown. Binding seen in cells or lysates may run through a third protein. Some binding calls cover weakened binding; strength is not graded here.

B1: p73 (protein, UniProt O15350 1-636)
chain: MAQSTATSPDGGTTFEHLWSSLEPDSTYFDLPQSSRGNNEVVGGTDSSMDVFHLEGMTTSVMAQFNLLSSTMDQMSSRAASASPYTPEHAASVPTHSPYAQPSSTFDTMSPAPVIPSNTDYPGPHHFEVTFQQSSTAKSATWTYSPLLKKLYCQIAKTCPIQIKVSTPPPPGTAIRAMPVYKKAEHVTDVVKRCPNHELGRDFNEGQSAPASHLIRVEGNNLSQYVDDPVTGRQSVVVPYEPPQVGTEFTTILYNFMCNSSCVGGMNRRPILIIITLEMRDGQVLGRRSFEGRICACPGRDRKADEDHYREQQALNESSAKNGAASKRAFKQSPPAVPALGAGVKKRRHGDEDTYYLQVRGRENFEILMKLKESLELMELVPQPLVDSYRQQQQLLQRPSHLQPPSYGPVLSPMNKVHGGMNKLPSVNQLVGQPPPHSSAATPNLGPVGPGMLNNHGHAVPANGEMSSSHSAQSMVSGSHCTPPPPYHADPSLVSFLTGLGCPNCIEYFTSQGLQSIYHLQNLTIEDLGALKIPEQYRMTIWRGLQDLKQGHDYSTAQQLLRSSNAATISIGGSGELQRQRVMEAVHFRVRHTITIPNRGGPGGGPDEWADFGFDLPDCKARKQPIKEEFTEAEIH
As for B1, the binding entry is recorded as “binds”.
